For 1 substance, binding results are on record in paper PMC5414353.

Sequences of proteins named here, by UniProt entry; tags and fusion partners are left off. Residues count along the entry.
UniProt P25799, residues 1-431: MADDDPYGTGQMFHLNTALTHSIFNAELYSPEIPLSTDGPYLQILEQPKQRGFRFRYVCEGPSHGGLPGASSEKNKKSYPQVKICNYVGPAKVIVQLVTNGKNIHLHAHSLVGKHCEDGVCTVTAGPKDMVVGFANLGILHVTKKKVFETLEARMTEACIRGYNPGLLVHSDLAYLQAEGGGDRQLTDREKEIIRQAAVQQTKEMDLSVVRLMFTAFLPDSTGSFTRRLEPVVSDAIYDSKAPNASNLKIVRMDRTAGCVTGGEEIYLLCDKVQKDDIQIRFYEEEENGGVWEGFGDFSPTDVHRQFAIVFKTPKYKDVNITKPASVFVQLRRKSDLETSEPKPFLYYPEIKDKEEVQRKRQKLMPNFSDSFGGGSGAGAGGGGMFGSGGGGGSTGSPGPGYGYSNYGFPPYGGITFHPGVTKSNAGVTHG

The target of this test is T1, Bcl-3 (endogenous, Treg cells) (mouse (endogenous in Tregs)) (UniProt Q9Z2F6).
T1 sequence: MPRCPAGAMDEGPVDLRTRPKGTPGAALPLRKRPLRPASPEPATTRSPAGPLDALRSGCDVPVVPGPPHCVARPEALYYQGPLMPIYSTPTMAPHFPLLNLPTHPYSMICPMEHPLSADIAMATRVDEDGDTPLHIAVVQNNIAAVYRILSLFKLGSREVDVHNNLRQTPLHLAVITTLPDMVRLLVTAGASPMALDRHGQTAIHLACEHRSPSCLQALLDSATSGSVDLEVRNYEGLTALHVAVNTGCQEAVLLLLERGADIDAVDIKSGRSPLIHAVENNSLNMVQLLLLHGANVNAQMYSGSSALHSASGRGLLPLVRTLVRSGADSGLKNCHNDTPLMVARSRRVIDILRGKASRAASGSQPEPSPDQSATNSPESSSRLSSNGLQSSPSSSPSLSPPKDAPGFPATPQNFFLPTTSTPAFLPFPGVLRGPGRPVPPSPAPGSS
Nature of the test: co-IP; immunoprecipitation with Bcl-3 antibodies (sc-185, on Protein G Dynabeads) from protein extracts of in vitro differentiated wt Tregs restimulated with PMA/Ionomycin for 4 h; lysis buffer 20 mM Tris/HCl pH 7.5, 0.25% NP40, 150 mM NaCl, 1.5 mM MgCl2, 1 mM DTT; 4 h; immunoblot with antibodies against Bcl-3 or p50.

No constants are given. Whether binding was seen depends on the method and setting. In cells and extracts the contact can be indirect. Some entries that bind do so weakly or less than the wild type.

Consider “NF-κB p50 (endogenous, Treg cells) (from UniProt P25799 1-431)”, for which the binding result is recorded as “binds”.
